Experimental data reported in publication doi:10.1101/2024.12.26.629157.
Results are given in words; binding and its absence hold for the method and conditions named. In cells and extracts the contact can be indirect. Some results given as binding are weak or reduced against the parent protein; the word gives no strength. For part of these data: Tags and fused reporters may be left off the sequences shown.

By UniProt entry, the sequences of proteins in these tests, tags left out.
UniProt P03129: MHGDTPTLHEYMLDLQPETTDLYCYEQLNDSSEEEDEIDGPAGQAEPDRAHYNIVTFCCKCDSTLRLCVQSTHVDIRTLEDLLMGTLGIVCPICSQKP
UniProt P06788: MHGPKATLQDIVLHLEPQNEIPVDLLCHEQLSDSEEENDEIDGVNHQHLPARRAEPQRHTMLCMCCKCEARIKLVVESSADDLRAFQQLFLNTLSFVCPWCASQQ

Assays:
Flag-KAT8 = target: T1, Flag-KAT8 (UniProt Q9H7Z6); test: co-IP
T1 sequence: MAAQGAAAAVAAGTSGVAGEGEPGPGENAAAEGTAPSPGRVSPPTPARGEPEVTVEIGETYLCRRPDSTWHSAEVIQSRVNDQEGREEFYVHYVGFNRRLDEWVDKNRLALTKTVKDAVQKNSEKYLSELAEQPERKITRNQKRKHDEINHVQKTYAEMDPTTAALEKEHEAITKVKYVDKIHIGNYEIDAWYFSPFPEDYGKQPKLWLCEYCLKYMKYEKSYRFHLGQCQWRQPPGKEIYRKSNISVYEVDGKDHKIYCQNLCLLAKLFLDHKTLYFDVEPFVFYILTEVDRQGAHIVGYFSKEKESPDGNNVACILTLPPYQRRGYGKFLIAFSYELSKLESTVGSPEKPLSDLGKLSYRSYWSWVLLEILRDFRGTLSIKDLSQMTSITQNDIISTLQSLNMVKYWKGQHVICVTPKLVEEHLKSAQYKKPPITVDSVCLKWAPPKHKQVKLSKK

[1] = target: T2, retinoblastoma protein (pRb) (human (endogenous in HeLa)) (UniProt P06400); test: co-IP
T2 sequence: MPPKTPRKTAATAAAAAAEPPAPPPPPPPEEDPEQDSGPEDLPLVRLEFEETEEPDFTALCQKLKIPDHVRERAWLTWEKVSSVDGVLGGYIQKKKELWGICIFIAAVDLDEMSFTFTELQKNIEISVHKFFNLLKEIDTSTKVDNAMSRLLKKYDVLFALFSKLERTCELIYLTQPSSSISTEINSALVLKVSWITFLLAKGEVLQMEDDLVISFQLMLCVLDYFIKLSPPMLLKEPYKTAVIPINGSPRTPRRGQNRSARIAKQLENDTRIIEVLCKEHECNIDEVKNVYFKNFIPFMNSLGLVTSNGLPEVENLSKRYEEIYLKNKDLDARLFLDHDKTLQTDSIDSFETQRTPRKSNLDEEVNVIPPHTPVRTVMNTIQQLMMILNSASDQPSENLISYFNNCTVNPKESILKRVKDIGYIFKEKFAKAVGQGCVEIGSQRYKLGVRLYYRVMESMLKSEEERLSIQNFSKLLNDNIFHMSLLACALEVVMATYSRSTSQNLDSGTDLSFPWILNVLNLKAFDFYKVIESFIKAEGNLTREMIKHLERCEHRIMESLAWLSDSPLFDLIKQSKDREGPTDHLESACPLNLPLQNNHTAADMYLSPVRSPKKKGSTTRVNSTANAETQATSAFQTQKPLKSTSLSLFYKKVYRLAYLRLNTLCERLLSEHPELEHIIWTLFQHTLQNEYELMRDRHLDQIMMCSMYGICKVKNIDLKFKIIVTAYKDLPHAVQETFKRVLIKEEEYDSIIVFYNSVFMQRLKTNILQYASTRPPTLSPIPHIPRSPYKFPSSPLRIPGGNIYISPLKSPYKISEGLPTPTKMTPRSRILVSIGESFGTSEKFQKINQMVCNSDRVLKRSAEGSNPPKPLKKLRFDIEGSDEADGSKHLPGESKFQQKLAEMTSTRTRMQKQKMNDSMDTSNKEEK

Row | Substance | binding (Flag-KAT8) | binding [1]
1 | HA-HPV16-E7 (from UniProt P03129 1-98) | binds | –
2 | HA-HPV18-E7 (from UniProt P06788 1-105) | binds | –
3 | HPV18 E7 (endogenous in HeLa cells) (from UniProt P06788 1-105) | – | binds
